These are yes or no findings as the source states them, for the method shown. For part of these data: In cells and extracts the contact can be indirect. Some results given as binding are weak or reduced against the parent protein; the word gives no strength.
Columns and labels:
[1] = biological target: EphA2 ligand-binding domain (residues 23 to 202), insect cell (human) (UniProt P29317); experiment: crystal structure; both purified
[2] = biological target: Full-length EphA2 wild type tagged with mTurquoise or eYFP, on HEK293T cells (human) (UniProt P29317); experiment: FRET or BRET
[3] = biological target: Full-length EphA2 wild type tagged with mTurquoise or eYFP, on HEK293T cells (human) (UniProt P29317); experiment: fluorescence intensity fluctuation (FIF); molecular brightness of EphA2 WT-eYFP in the membrane of HEK293T cells; untreated (no ligand); compared with LAT (monomer) and E-cadherin (dimer) controls

Chains of the proteins cited; added tags and fusions are not shown. Lines headed by an entry give the natural chain unless they say otherwise; changes in a name come on top. Residues count along the entry.
UniProt P29317: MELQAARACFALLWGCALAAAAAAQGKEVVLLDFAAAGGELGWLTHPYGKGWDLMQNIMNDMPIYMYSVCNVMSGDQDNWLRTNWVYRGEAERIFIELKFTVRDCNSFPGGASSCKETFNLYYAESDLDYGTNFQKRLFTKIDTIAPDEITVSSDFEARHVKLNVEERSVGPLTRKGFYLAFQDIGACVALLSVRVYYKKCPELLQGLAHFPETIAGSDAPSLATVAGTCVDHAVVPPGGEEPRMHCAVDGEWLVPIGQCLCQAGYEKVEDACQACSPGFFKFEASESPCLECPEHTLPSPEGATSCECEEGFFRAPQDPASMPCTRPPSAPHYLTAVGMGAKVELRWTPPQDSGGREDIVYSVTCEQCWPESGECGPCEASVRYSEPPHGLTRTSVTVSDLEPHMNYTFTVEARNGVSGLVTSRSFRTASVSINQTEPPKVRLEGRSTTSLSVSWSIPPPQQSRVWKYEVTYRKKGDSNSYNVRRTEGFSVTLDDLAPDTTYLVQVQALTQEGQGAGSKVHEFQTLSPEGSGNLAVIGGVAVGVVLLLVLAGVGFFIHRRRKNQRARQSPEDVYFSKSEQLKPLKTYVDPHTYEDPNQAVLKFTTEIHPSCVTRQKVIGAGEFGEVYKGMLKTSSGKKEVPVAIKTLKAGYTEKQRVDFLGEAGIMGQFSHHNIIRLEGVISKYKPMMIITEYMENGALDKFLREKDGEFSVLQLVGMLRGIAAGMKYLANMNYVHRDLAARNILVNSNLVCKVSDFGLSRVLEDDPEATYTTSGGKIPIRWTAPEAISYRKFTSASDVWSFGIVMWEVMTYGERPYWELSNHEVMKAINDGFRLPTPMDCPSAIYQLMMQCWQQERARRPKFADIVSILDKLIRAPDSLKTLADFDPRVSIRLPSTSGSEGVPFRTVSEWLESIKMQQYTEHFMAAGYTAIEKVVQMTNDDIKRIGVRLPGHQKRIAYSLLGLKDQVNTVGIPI
EphA2 ligand-binding domain (residues 23 to 202), insect cell: residues 23-202 of P29317
UniProt F5HAK9, residues 26-704: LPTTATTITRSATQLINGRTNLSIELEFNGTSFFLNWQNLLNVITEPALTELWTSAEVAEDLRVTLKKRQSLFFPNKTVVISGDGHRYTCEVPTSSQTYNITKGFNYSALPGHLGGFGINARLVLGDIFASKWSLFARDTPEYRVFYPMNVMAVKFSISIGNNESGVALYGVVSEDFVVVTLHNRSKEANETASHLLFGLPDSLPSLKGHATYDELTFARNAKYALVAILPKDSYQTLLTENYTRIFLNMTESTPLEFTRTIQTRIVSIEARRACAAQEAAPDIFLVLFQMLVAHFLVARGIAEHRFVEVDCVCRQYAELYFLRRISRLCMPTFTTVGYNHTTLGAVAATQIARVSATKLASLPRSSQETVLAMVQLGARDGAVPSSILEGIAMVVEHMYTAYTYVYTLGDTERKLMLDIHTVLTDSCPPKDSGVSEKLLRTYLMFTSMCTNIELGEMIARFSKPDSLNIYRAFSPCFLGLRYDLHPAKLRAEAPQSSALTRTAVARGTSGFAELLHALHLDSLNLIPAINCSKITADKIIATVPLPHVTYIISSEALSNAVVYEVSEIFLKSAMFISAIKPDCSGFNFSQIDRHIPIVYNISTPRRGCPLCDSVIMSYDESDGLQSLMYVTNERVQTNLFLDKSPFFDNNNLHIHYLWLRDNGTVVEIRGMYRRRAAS

| Substance | binding [1] | binding [2] | binding [3] |
| --- | --- | --- | --- |
| HHV-8 glycoprotein H ectodomain (residues 26 to 704) (from UniProt F5HAK9 26-704) (domain or fragment) | binds |  |  |
| Full-length EphA2 wild type tagged with mTurquoise or eYFP, on HEK293T cells (from UniProt P29317 24-976) (receptor) |  | binds | binds |
